The record followed here is PubChem BioAssay AID1347423 (Functional Genomics Laboratory (NCATS/FGL), 2020).

Out of some 52,000 sequences screened, about 210 (0.4%) were called active.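 The calls were made as follows: active = gene whose silencing raises cell survival under the drug, median off-target-corrected z-score across its silencing RNAs 2 or more; inactive = the rest.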 This is one part of the list.

The test can be described thus: Resistance to Poly (ADP-Ribose) Polymerase inhibitor: Gene Identification via Genome-wide siRNA Screen. The note with it: mouse BRCA2 R2336H ES cells, olaparib, CellTiter-Glo viability; hits give high values. The essentials:
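Mouse BRCA2 R2336H ES cells were reverse-transfected with siRNA (20 nM final), treated at 48 h with 500 nM olaparib, and read by CellTiter-Glo after 72 h. Scores: MAD-based z per siRNA, median per gene, seed off-target correction.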
For GGCCAUAUCUUAAAGUUAATT against Hcfc1r1, the z-score is inactive: -0.196.

GGCUCUGUGAAGAAAGUCATT against Cnn3: the z-score is inactive: -0.0277.

On to CGUAAAGUGACCUUAAGAATT against Lrrfip1, for which the z-score is inactive: -0.283.

For the sequence “GCCAUUGGAAUUUUGAAAUTT against 1700003M02Rik”, the z-score was inactive: 0.796.

For GGCUCUUCUAUUCUGAACUTT against Ly86, the z-score was inactive: -0.389.

In the case of CCAGAAUGUCACUGCCAGUTT against Zfy1, the z-score is inactive: 0.0122.

Regarding CGGUAAAUGGUCAAGAGUATT against Rheb, the z-score is inactive: 0.395.

Turning to GGCUGAAUCUUGAAAAUGATT against Cntnap1, the z-score was inactive: 1.76.

For the sequence CCGUUGUCAUGUUUUAAAGTT against Prdx6, the z-score is inactive: 0.15.

As for GGCCUAUUUGUUUUUGAAATT against Mthfd2, the z-score was inactive: 0.0408.

Take “GGUGGUCUGAGAAAUACUCTT against 0610037L13Rik”: the z-score is inactive: 0.331.

Regarding GCCUUGUAUACACUUGUUATT against Mrps27, the z-score was inactive: 0.885.

Turning to “CCUGGAGAGUGAUACGUUCTT against 0610012A11Rik”, the z-score was inactive: -0.453.

Consider GGGAAAGAAAGUCAGCUCUTT against Ptprf, for which the z-score is inactive: 0.864.

In the case of GGAGUGAAAUCUCCUAAAATT against Tmsb10, the z-score is inactive: -0.871.

On to GGAUCCUGAAAUCAAAACUTT against Mbl1, for which the z-score was inactive: 0.479.

As for GGGUCAAUCAUGAAUGUUUTT against Pak4, the z-score was inactive: -1.4.

With GGUCCCGGAACGGUACUUUTT against Paqr3, the z-score was inactive: -0.788.

With GCUGUUCAUAUAUCUUGCUTT against Olfr1386, the z-score was inactive: 0.621.

Consider CCAUAGCAGGGAAGAUUUUTT against Kcnd2, for which the z-score was inactive: -0.591.

GGCAAGAGAAUUCAGAUCUTT against Slc5a1: the z-score is inactive: 2.6.

Turning to GGUCACACUGGUGAAGUCUTT against Tjp1, the z-score is inactive: 0.395.

With GGAUGAGAAUAGCUAGAAATT against Zfp553, the z-score was inactive: -0.0959.

In the case of GGAAGCUGAAAGAAGGAGATT against Mx1, the z-score is inactive: 0.394.

Turning to GGACAAGCUAAGCAUUGAGTT against Atp6ap1, the z-score is inactive: -1.98.

As to GCGACUGGCGCAACAAAAUTT against Sox18, the z-score was inactive: 2.73.

In the case of GGGACAGUUUUCGGACUUCTT against Edg6, the z-score is inactive: 0.617.

For the sequence GGAUACUUUGACCAAGUCUTT against Irx6, the z-score was inactive: -1.02.

As for GCCAUUCCAAAGUAUUACCTT against Mrpl34, the z-score is inactive: -0.567.

As for GGUAUUCCUUUUUUGUAGCTT against Oact1, the z-score was inactive: 1.95.

Consider “GGUUACUUCAAAGACAAAGTT against 3110004H13Rik”, for which the z-score is inactive: 0.0757.

In the case of “GCUUGGAGUCGUAGUUUCUTT against F730031O20Rik”, the z-score is inactive: -0.36.

For GGAGCUAGAACUCAAUGAATT against Lrrn6a, the z-score is inactive: 1.61.

Regarding “GCCAUGCCUUAAUCUUGGUTT against F730004D16Rik”, the z-score was inactive: -0.78.

For the sequence GGCUCAUGAGAAGACACACTT against Zbtb17, the z-score is inactive: -0.726.

As to GGAACUAAUGUGCAGGAGGTT against Suclg2, the z-score is inactive: 1.31.

Regarding GGAUAUCACCCACAAUAAATT against Vps28, the z-score is inactive: -2.47.

For GCAUGUCGAGUUUGAUUUCTT against Wdr12, the z-score was inactive: -1.27.

In the case of “CCACACGUUCCAUUUCUCGTT against 2310016C08Rik”, the z-score was inactive: 1.08.

Take “CGGACACACUUUGUUAUUATT against 4833420G17Rik”: the z-score was inactive: 1.87.

GGAGGAUAUACACAACAGGTT against Wbp5: the z-score is inactive: 0.752.

Regarding GGGCUAUAUAUAUUUCCACTT against Asns, the z-score was inactive: -2.88.

As for GGAGAAAAGCUGACCUUUGTT against Gstm5, the z-score was inactive: -2.35.

For the sequence CCCAGAAGAGACUAUACUGTT against Mylc2pl, the z-score is inactive: -0.437.

As for “CGUACAUCUGUCCUACAUGTT against 2810441K11Rik”, the z-score was inactive: -1.53.

As to “CCUUAGUAUGUAUGUGGUATT against 4933403G14Rik”, the z-score is inactive: -0.0446.

Take CGGCCAACUUUCAUUGAUCTT against Zfpn1a4: the z-score is inactive: -0.319.

On to GCCUAAACCUGAGUUAUAATT against Lrig1, for which the z-score was inactive: 0.0302.

With GGUAGAGAGGAAUUCAUAATT against Lrp11, the z-score is inactive: -2.56.

With “GGUACCAUUCGUUCAAACCTT against 3830406C13Rik”, the z-score was inactive: -0.156.

For GCACCAUACUAGGAUCUGCTT against Slc24a5, the z-score was inactive: -0.37.

As for GGCAAAGCAAGCUAUAUCCTT against Blr1, the z-score was inactive: 1.28.

GGAUUCUCCAUUCUCAGUGTT against Tde2l: the z-score was inactive: -1.03.

Take “GGUCAUUUGUUUUCAGGGATT against A330080J22Rik”: the z-score was inactive: -0.0644.

On to GGAAGAGGUGGACAAGAUGTT against Gps2, for which the z-score was inactive: -0.729.

As to GGGCCACUUUCCAAUUCAATT against Tectb, the z-score is inactive: 0.856.

With GUGGUUGUUUUCGUCCUUCTT against Olfr821, the z-score is inactive: -0.835.

With GCUUCUGAAUAUCAGACGGTT against BC062109, the z-score is inactive: 0.0847.

For the sequence CGGUGGAAUUCGUUAGAAGTT against Ireb2, the z-score was inactive: -0.959.

As for GGUAACUGACUAAUGGAAGTT against Tcl1b4, the z-score is inactive: 0.187.

CCAAUGAAACUUCUAGACUTT against Gjb2: the z-score is inactive: 0.858.

Regarding GCUUUUUAGGCAUUGGUAATT against Lif, the z-score is inactive: 0.884.

Turning to GGAUGUUGGAAGAAGGCUUTT against Kcna5, the z-score is inactive: -0.361.

For GCAUUUCACCGUCAUGAACTT against BC055368, the z-score is inactive: -0.127.

On to GGAAGAAAGUGGCAUAGCCTT against Sirt7, for which the z-score is inactive: 0.259.

Take GGAGCAUAUACAACUCAGCTT against AV340375: the z-score is inactive: -0.446.

With GGUUUGCAAUAAUUUUCCCTT against Cyp2c66, the z-score is inactive: 0.303.

GCAUUCAAUUCUCUAUGGUTT against BC017643: the z-score was inactive: 1.26.

Take GGGAGAAUCGUCAAUGAUGTT against Dpysl3: the z-score is inactive: -0.0761.

Consider GGCAUUUCAUAGAGAGAAUTT against Oraov1, for which the z-score is inactive: -1.5.

With GCUCCCUUAGGCUAUGAUATT against Ash2l, the z-score is inactive: -1.36.

In the case of GCAACAUAAAUCCCAAAGUTT against Myo1h, the z-score is inactive: 0.569.

As for “GGCCUUGUGUGUCCAUCAATT against 4933421I07Rik”, the z-score is inactive: 0.0613.

In the case of “GGCCAGUUUAAACCAGUCUTT against 4930488L10Rik”, the z-score is inactive: -0.757.

With GGAAGUGCUUAUGUCCUUATT against Cited2, the z-score is inactive: -0.0128.

For CCCGAUUAAAGUUUUGACCTT against Pbx4, the z-score was inactive: 1.06.

As for GGCUUACCGAAAGCAAGCCTT against Dnajb4, the z-score is inactive: -0.777.

On to GGAGAAAAACACAUCCCAUTT against Foxa2, for which the z-score was inactive: 0.21.

Regarding GGGUGUCAUCCUUAUCCUGTT against Olfr655, the z-score is inactive: 1.21.

With GGAAGGAUCCCAAAUUCAGTT against Pbp, the z-score was inactive: 0.36.

As for GCCGACUCAUGGUUUAGAATT against Tmem18, the z-score was inactive: -0.47.

For GCAAGUUUAGUGAAUUGUGTT against Ddx58, the z-score is inactive: 1.68.

Turning to GGGCUAUCGACUCAACAGATT against Kif23, the z-score is inactive: 0.363.

Take GGUGAUUUCAAAUGAAAGCTT against Prps2: the z-score is inactive: 0.208.

For the sequence GGACUUAGAAGUCUGCUAATT against Iqcb1, the z-score is inactive: -0.296.

For “GCCUUAGAGCACAUUCAGATT against 1200013I08Rik”, the z-score was inactive: 0.0327.

Turning to GGAUUUGAUCCGAUACCUGTT against Timeless, the z-score is inactive: -0.483.

As for GCAAGUCCUAAUAUUGUGATT against Rab5a, the z-score was inactive: 2.74.

GCCCUUACUUAGGUCUAGGTT against Kctd12: the z-score is inactive: -1.18.

Turning to “GGCCAUGGUUUCAAAAACATT against 2610028F08Rik”, the z-score was inactive: 0.903.

Take GGAUCACACCAUCAAAAAGTT against Copb1: the z-score was inactive: -3.48.

With “GGGAAUUGGCUAUCACAGATT against 1300010M03Rik”, the z-score is inactive: -1.55.

In the case of GGUGAGAACUCAAGAGACUTT against Scp2, the z-score is inactive: 0.104.

As for GGAACUUCUGGAAUCCCUCTT against Klra5, the z-score was inactive: -0.0821.

Take CGAUUCUUUAGGAACUUUGTT against Pak7: the z-score was inactive: -0.0698.

On to GGCUUACCUAAUCAAUUGUTT against Laptm4a, for which the z-score was inactive: -0.0726.

On to GGCGAUAAGGAACAGAAGUTT against Ppp3r1, for which the z-score is inactive: 1.57.

For GGAAUCUGUUGAACAUAUCTT against Csnb, the z-score is inactive: -0.795.

On to GCUUGAUUAUUGUGUGUCCTT against Olfr786, for which the z-score is inactive: 0.14.

Consider AUGGUAUACUAUUAUGCUGTT against MGC107671, for which the z-score is inactive: 0.93.

Consider GGUUGUAUUAUCUUCGGAATT against Psmb8, for which the z-score was inactive: 0.178.

On to GCGCAAGGAAGAUGCCCAUTT against Dub1a, for which the z-score was inactive: 0.381.

Regarding “CCCUUUCUAGAAAGUCAGUTT against 4930513F16Rik”, the z-score is inactive: -1.08.

For GGAAGUAUGAAAUUAUCAGTT against Car12, the z-score was inactive: 1.44.
